{
  "sequences": {"note": "Chains of the proteins cited; added tags and fusions are not shown.", "PCBP2, Q15366, UniProt Q15366, whole entry": "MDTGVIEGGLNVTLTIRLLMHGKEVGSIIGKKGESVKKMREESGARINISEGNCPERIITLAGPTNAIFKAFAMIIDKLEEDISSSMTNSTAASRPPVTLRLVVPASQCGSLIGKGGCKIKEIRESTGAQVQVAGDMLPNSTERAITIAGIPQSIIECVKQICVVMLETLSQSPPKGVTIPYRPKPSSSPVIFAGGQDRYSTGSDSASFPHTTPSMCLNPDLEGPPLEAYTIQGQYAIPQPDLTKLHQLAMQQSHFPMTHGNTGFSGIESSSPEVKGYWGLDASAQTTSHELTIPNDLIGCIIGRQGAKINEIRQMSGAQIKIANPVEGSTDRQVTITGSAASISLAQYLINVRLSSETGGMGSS"},
  "source": "the supplement of paper PMC10032668",
  "assay_in_all_cases": "PRISMA enrichment of interactor (LFQ) in peptide spot vs all other peptide spots (log2 fold change); higher = stronger / more specific binding of the interactor to the peptide",
  "key": {"CNN3, Q15417": {"biological_target": "CNN3, Q15417", "method": "(§1)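 PRISMA: 15-aa overlapping tiles (offset 8 aa) of 60 microproteins, plus SOS1/GLUT1 control peptides, were spot-synthesized on cellulose membranes in triplicate. Membranes were incubated with benzonase-treated HEK293T lysate, and bound proteins were identified by LC-MS/MS with LFQ. Enrichment is the log2 fold change of each protein in one spot versus all other spots. Only interactors passing the significance cutoff are listed.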"}, "NUP62, P37198": {"biological_target": "NUP62, P37198", "method": "as §1"}, "ORMDL1, Q9P0S3": {"biological_target": "ORMDL1, Q9P0S3", "method": "as §1"}, "PCBP2, Q15366": {"biological_target": "PCBP2, Q15366", "method": "as §1"}, "RTTN, Q86VV8": {"biological_target": "RTTN, Q86VV8", "method": "as §1"}, "CNOT1, A5YKK6": {"biological_target": "CNOT1, A5YKK6", "method": "as §1"}, "HAGH, Q16775": {"biological_target": "HAGH, Q16775", "method": "as §1"}, "HYOU1, Q9Y4L1": {"biological_target": "HYOU1, Q9Y4L1", "method": "as §1"}, "CHPT1, Q8WUD6": {"biological_target": "CHPT1, Q8WUD6", "method": "as §1"}, "DUS3L, Q96G46": {"biological_target": "DUS3L, Q96G46", "method": "as §1"}, "H2AFY, O75367": {"biological_target": "H2AFY, O75367", "method": "as §1"}, "MRPL17, Q9NRX2": {"biological_target": "MRPL17, Q9NRX2", "method": "as §1"}, "MRPS6, P82932": {"biological_target": "MRPS6, P82932", "method": "as §1"}, "PGK1, P00558": {"biological_target": "PGK1, P00558", "method": "as §1"}, "RCN2, Q14257": {"biological_target": "RCN2, Q14257", "method": "as §1"}, "RIOK2, Q9BVS4": {"biological_target": "RIOK2, Q9BVS4", "method": "as §1"}, "SARDH, Q9UL12": {"biological_target": "SARDH, Q9UL12", "method": "as §1"}, "SPCS2, Q15005": {"biological_target": "SPCS2, Q15005", "method": "as §1"}, "VPS52, Q8N1B4": {"biological_target": "VPS52, Q8N1B4", "method": "as §1"}, "CKB, P12277": {"biological_target": "CKB, P12277", "method": "as §1"}, "COPZ1, P61923": {"biological_target": "COPZ1, P61923", "method": "as §1"}, "CPNE3, O75131": {"biological_target": "CPNE3, O75131", "method": "as §1"}, "CUL3, Q13618": {"biological_target": "CUL3, Q13618", "method": "as §1"}, "EIF2S3, P41091": {"biological_target": "EIF2S3, P41091", "method": "as §1"}, "EIF3G, O75821": {"biological_target": "EIF3G, O75821", "method": "as §1"}, "ELOVL5, Q9NYP7": {"biological_target": "ELOVL5, Q9NYP7", "method": "as §1"}, "ESYT1, Q9BSJ8": {"biological_target": "ESYT1, Q9BSJ8", "method": "as §1"}, "HNRNPDL, O14979": {"biological_target": "HNRNPDL, O14979", "method": "as §1"}, "IGF2BP2, Q9Y6M1": {"biological_target": "IGF2BP2, Q9Y6M1", "method": "as §1"}, "MAT2A, P31153": {"biological_target": "MAT2A, P31153", "method": "as §1"}, "MDN1, Q9NU22": {"biological_target": "MDN1, Q9NU22", "method": "as §1"}, "MRPL39, Q9NYK5": {"biological_target": "MRPL39, Q9NYK5", "method": "as §1"}, "MYH10, P35580": {"biological_target": "MYH10, P35580", "method": "as §1"}, "NIFK, Q9BYG3": {"biological_target": "NIFK, Q9BYG3", "method": "as §1"}, "PAK1IP1, Q9NWT1": {"biological_target": "PAK1IP1, Q9NWT1", "method": "as §1"}, "PFDN6, O15212": {"biological_target": "PFDN6, O15212", "method": "as §1"}, "PLAA, Q9Y263": {"biological_target": "PLAA, Q9Y263", "method": "as §1"}, "PRPF38A, Q8NAV1": {"biological_target": "PRPF38A, Q8NAV1", "method": "as §1"}, "SPTLC1, O15269": {"biological_target": "SPTLC1, O15269", "method": "as §1"}, "SUGP2, Q8IX01": {"biological_target": "SUGP2, Q8IX01", "method": "as §1"}, "TARS, P26639": {"biological_target": "TARS, P26639", "method": "as §1"}, "UCK2, Q9BZX2": {"biological_target": "UCK2, Q9BZX2", "method": "as §1"}},
  "note": "Some of the results follow. The list holds hits alone, and they repeat only in part.",
  "data": [
    {"binder": "CSRCFMFTFSTFSFN", "note": "[DANCR]", "values": [
      {"measurement": "PRISMA enrichment of interactor (log2)", "setting": "CNN3, Q15417", "result": 4.73},
      {"measurement": "PRISMA enrichment of interactor (log2)", "setting": "NUP62, P37198", "result": 3.75},
      {"measurement": "PRISMA enrichment of interactor (log2)", "setting": "ORMDL1, Q9P0S3", "result": 4.15},
      {"measurement": "PRISMA enrichment of interactor (log2)", "setting": "PCBP2, Q15366", "result": 5.13},
      {"measurement": "PRISMA enrichment of interactor (log2)", "setting": "RTTN, Q86VV8", "result": 4.6}
    ]},
    {"binder": "IRQWTYRSWGNGCSE", "note": "[SNHG8_2]", "values": [
      {"measurement": "PRISMA enrichment of interactor (log2)", "setting": "CNOT1, A5YKK6", "result": 5.26},
      {"measurement": "PRISMA enrichment of interactor (log2)", "setting": "HAGH, Q16775", "result": 5.67},
      {"measurement": "PRISMA enrichment of interactor (log2)", "setting": "HYOU1, Q9Y4L1", "result": 5.35}
    ]},
    {"binder": "MECAGLRRLSFWSIC", "note": "[PSMB8-AS1]", "values": [
      {"measurement": "PRISMA enrichment of interactor (log2)", "setting": "CHPT1, Q8WUD6", "result": 6.07},
      {"measurement": "PRISMA enrichment of interactor (log2)", "setting": "DUS3L, Q96G46", "result": 5.35},
      {"measurement": "PRISMA enrichment of interactor (log2)", "setting": "H2AFY, O75367", "result": 4.74},
      {"measurement": "PRISMA enrichment of interactor (log2)", "setting": "HAGH, Q16775", "result": 7.39},
      {"measurement": "PRISMA enrichment of interactor (log2)", "setting": "MRPL17, Q9NRX2", "result": 4.21},
      {"measurement": "PRISMA enrichment of interactor (log2)", "setting": "MRPS6, P82932", "result": 5.41},
      {"measurement": "PRISMA enrichment of interactor (log2)", "setting": "PGK1, P00558", "result": 4.91},
      {"measurement": "PRISMA enrichment of interactor (log2)", "setting": "RCN2, Q14257", "result": 5.61},
      {"measurement": "PRISMA enrichment of interactor (log2)", "setting": "RIOK2, Q9BVS4", "result": 4.65},
      {"measurement": "PRISMA enrichment of interactor (log2)", "setting": "SARDH, Q9UL12", "result": 4.47},
      {"measurement": "PRISMA enrichment of interactor (log2)", "setting": "SPCS2, Q15005", "result": 5.93},
      {"measurement": "PRISMA enrichment of interactor (log2)", "setting": "VPS52, Q8N1B4", "result": 4.12}
    ]},
    {"binder": "MNGLTTGRPALLQML", "note": "[RP11-12K22.1]", "values": [
      {"measurement": "PRISMA enrichment of interactor (log2)", "setting": "CKB, P12277", "result": 5.7},
      {"measurement": "PRISMA enrichment of interactor (log2)", "setting": "CNN3, Q15417", "result": 6.9},
      {"measurement": "PRISMA enrichment of interactor (log2)", "setting": "COPZ1, P61923", "result": 5.51},
      {"measurement": "PRISMA enrichment of interactor (log2)", "setting": "CPNE3, O75131", "result": 4.35},
      {"measurement": "PRISMA enrichment of interactor (log2)", "setting": "CUL3, Q13618", "result": 6.48},
      {"measurement": "PRISMA enrichment of interactor (log2)", "setting": "EIF2S3, P41091", "result": 6.19},
      {"measurement": "PRISMA enrichment of interactor (log2)", "setting": "EIF3G, O75821", "result": 6.13},
      {"measurement": "PRISMA enrichment of interactor (log2)", "setting": "ELOVL5, Q9NYP7", "result": 5.72},
      {"measurement": "PRISMA enrichment of interactor (log2)", "setting": "ESYT1, Q9BSJ8", "result": 7.45},
      {"measurement": "PRISMA enrichment of interactor (log2)", "setting": "HNRNPDL, O14979", "result": 4.89},
      {"measurement": "PRISMA enrichment of interactor (log2)", "setting": "IGF2BP2, Q9Y6M1", "result": 5.03},
      {"measurement": "PRISMA enrichment of interactor (log2)", "setting": "MAT2A, P31153", "result": 6.37},
      {"measurement": "PRISMA enrichment of interactor (log2)", "setting": "MDN1, Q9NU22", "result": 7.8},
      {"measurement": "PRISMA enrichment of interactor (log2)", "setting": "MRPL39, Q9NYK5", "result": 8.45},
      {"measurement": "PRISMA enrichment of interactor (log2)", "setting": "MYH10, P35580", "result": 10.6},
      {"measurement": "PRISMA enrichment of interactor (log2)", "setting": "NIFK, Q9BYG3", "result": 5.13},
      {"measurement": "PRISMA enrichment of interactor (log2)", "setting": "PAK1IP1, Q9NWT1", "result": 4.5},
      {"measurement": "PRISMA enrichment of interactor (log2)", "setting": "PFDN6, O15212", "result": 5.7},
      {"measurement": "PRISMA enrichment of interactor (log2)", "setting": "PLAA, Q9Y263", "result": 4.6},
      {"measurement": "PRISMA enrichment of interactor (log2)", "setting": "PRPF38A, Q8NAV1", "result": 5.38},
      {"measurement": "PRISMA enrichment of interactor (log2)", "setting": "SPTLC1, O15269", "result": 3.86},
      {"measurement": "PRISMA enrichment of interactor (log2)", "setting": "SUGP2, Q8IX01", "result": 7.67},
      {"measurement": "PRISMA enrichment of interactor (log2)", "setting": "TARS, P26639", "result": 4.69},
      {"measurement": "PRISMA enrichment of interactor (log2)", "setting": "UCK2, Q9BZX2", "result": 6.36}
    ]}
  ]
}
